## Library screen at single concentrations

Protein sequences, listed by entry. Tags and fused reporters are not part of them. Residues count along the entry.
UniProt Q8IDJ8, 1-583: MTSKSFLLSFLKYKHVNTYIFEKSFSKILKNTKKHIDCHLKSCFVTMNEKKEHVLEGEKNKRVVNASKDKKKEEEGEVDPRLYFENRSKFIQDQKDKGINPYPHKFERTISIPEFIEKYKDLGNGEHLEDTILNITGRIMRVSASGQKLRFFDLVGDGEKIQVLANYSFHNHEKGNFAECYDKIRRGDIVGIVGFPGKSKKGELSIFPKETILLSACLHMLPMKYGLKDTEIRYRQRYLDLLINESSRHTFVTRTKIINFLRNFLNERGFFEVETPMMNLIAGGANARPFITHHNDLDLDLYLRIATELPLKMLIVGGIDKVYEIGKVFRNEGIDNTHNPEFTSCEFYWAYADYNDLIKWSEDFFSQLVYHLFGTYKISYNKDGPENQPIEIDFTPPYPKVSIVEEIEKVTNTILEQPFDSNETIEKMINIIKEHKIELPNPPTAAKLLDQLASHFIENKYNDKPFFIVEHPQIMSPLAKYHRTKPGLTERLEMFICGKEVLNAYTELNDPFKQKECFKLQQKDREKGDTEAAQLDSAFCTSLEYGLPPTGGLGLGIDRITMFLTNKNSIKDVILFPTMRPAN
UniProt P9WPC5, whole entry: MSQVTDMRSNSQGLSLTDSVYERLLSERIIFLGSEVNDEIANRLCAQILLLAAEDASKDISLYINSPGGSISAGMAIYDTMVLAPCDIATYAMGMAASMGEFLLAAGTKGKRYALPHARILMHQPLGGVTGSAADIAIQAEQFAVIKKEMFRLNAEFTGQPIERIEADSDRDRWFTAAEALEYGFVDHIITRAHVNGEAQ
UniProt P9WPC3, whole entry partner: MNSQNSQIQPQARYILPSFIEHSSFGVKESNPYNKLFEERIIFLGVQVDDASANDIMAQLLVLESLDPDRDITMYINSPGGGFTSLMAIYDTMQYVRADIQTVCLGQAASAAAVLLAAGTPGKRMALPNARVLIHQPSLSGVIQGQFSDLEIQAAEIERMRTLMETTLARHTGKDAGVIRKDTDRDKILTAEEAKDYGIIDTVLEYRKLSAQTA
UniProt P9WFT3, whole entry: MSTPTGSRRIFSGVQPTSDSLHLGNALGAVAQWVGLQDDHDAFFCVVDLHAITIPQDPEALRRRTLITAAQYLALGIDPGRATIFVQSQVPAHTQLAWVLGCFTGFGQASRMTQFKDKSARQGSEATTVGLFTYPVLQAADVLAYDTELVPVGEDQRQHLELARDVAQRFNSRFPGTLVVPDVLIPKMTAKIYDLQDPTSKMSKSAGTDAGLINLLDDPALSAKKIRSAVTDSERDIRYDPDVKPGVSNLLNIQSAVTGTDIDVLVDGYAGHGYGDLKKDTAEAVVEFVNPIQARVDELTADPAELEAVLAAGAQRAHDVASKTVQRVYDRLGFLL

Source: ChEMBL document CHEMBL3988442, “University of Dundee, Small-Polar-MMV Screening Library” (2021).

Results are given as percent effect.
How 0% and 100% were set is not recorded. Most values in the screen are low, and negative values occur.
This is an unselected part of the compounds tested.
A dash means the value is not listed here; it may have been measured.

PfKRS1: 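Enzyme assay of the cytosolic lysyl-tRNA synthetase in 384-well plates, read by luminescence. Target: Lysine-tRNA ligase, Plasmodium falciparum 3D7 (UniProt Q8IDJ8). Compounds at 30 µM. Direction is inferred from only a few compounds that gave an IC50; most scored high, so higher reads as stronger inhibition. Of about 69,000 compounds tested this way, about 49 (0.071%) reached 50% or more in at least one test.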
ClpP1P2: 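ClpP1P2, Mycobacterium tuberculosis (UniProt P9WPC5 and UniProt P9WPC3). Protease assay of ClpP1P2, read by the AMC dye that it sets free. Tested at 50 µM. Higher reads as stronger inhibition, judged from the few compounds that gave an IC50. Most other retested compounds had strongly negative values. Of about 69,000 compounds tested this way, about 10 (0.015%) reached 50% or more in at least one test.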
MtTrpRS: 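Tryptophan-tRNA ligase, Mycobacterium tuberculosis (UniProt P9WFT3). Enzyme assay of tryptophanyl-tRNA synthetase; the read-out is not stated. Tested at 10 µM. Direction is not recorded; retested compounds ran higher, which suggests that high means inhibition. About 65,000 compounds were tested under these conditions; 0.098% (about 64) showed 50% or more at least once.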

| # | compound | PfKRS1 | ClpP1P2 | MtTrpRS |
|---|---|---|---|---|
| 1 | `COc1cccc(C2CC(=O)Nc3c2cnn3C(C)(C)C)c1` (centres unmarked) | 6.818% | -7.037% | -1.483% |
| 2 | `Cc1cc(CN2C[C@@H]3CCCO[C@@H]3[C@H](NS(C)(=O)=O)C2)no1` | 6.492% | -8.684% | 2.278% |
| 3 | `COc1ccc(CN2C[C@H]3C[C@H](CN(C)C)O[C@H]3C2)cc1` | 0.06898% | -15.61% | 0.2907% |
| 4 | `CS(=O)(=O)NCCC(=O)N1CCC(Cc2ccc(CO)cc2)C1` (centres unmarked) | 3.827% | -7.845% | 0.09234% |
| 5 | `Cc1sc(-c2ccco2)nc1C(=O)NCC1CCOC1` (centres unmarked) | 4.944% | 1.685% | -0.4461% |
| 6 | `Cc1cc2nc(C(C)C)cc(NC(C)c3nncn3C)n2n1` (centres unmarked) | -3.187% | -0.7691% | 3.95% |
| 7 | `COc1ccccc1CCNC(=O)N1CCCC(c2nncn2C)C1` (centres unmarked) | 2.235% | -18.81% | 2.803% |
| 8 | `Cn1cnc2cc(C(=O)NS(=O)(=O)c3ccc(F)cc3)ccc21` | 2.469% | -6.842% | -1.332% |
| 9 | `Cc1ccnn1CCC(=O)N1CCCC[C@@]2(C)[C@@H]1CCC(=O)N2C` | 1.156% | -14.92% | -3.312% |
| 10 | `CCC(Nc1nccc(C2CCCC2)n1)c1ccncc1` (centres unmarked) | 7.109% | -8.874% | -0.4248% |
| 11 | `CC(=O)NCC(=O)N1CCn2cc(CN3CCCCC3)nc2C1` | 0.8637% | -12.74% | -4.554% |
| 12 | `c1cc(CN2CC[C@H]3CO[C@H](CN4CCOCC4)[C@H]3C2)cs1` | 2.06% | -16.14% | -8.076% |
| 13 | `CCc1ccc(C2c3nc[nH]c3CCN2Cc2nccn2CC)nc1` (centres unmarked) | -5.932% | 4.728% | 4.341% |
| 14 | `COc1ncc(CN(CCN(C)C)Cc2ccc(C)s2)cn1` | -2.676% | -1.543% | 4.19% |
| 15 | `CN(CCc1ccncc1)C1CCCN(Cc2noc(C3CC3)n2)C1` (centres unmarked) | 2.221% | 7.121% | 0.4402% |
| 16 | `CCC(C(=O)Nc1ccc2nc(C)oc2c1)N1CCCC1=O` (centres unmarked) | -3.54% | -6.055% | 1.891% |
| 17 | `Cn1c2c(ccc1=O)CCN(Cc1ccoc1)CC2` | 4.142% | 11.51% | 10.42% |
| 18 | `CC(O)CN1CCN(C(=O)c2ccn(-c3cccc(Cl)c3)n2)CC1` (centres unmarked) | -2.191% | -2.474% | 2.478% |
| 19 | `Cc1nc(CN2C[C@@H]3CN(C(=O)c4cccn4C)C[C@@H]3C2=O)cs1` | 4.576% | 7.283% | -1.657% |
| 20 | `CCNC(=O)N1CCC2(CC1)CCn1c(-c3ccccc3)cnc12` | 2.77% | -4.151% | 2.422% |
| 21 | `CCCn1ccnc1-c1nccn1CCn1cnnc1` | 2.68% | 1.436% | 5.286% |
| 22 | `COc1ccc(C(=O)N2CC[C@@H](N3CCC(O)CC3)[C@H](O)C2)cc1C` | 1.902% | -8.762% | -8.637% |
| 23 | `Cn1cc(C(=O)N2C[C@@H]3COC[C@]3(COCc3cccnc3)C2)cn1` | 3.471% | -3.045% | -6.505% |
| 24 | `Cc1nc(N(C)C)nc(-c2cccc(-c3ccn(CCCF)n3)c2)c1C` | -2.6% | -16.13% | 2.736% |
| 25 | `Cc1ccoc1C(=O)N1CCCC(CNS(C)(=O)=O)C1` (centres unmarked) | -1.757% | -17.11% | 18.22% |
| 26 | `CC(C)c1n[nH]c(C2CN(C(=O)CCCn3cccn3)CCO2)n1` (centres unmarked) | 2.404% | -9.711% | -7.014% |
| 27 | `CNC(=O)COc1ccc(CNc2c(Cl)cccc2C#N)cc1` | 4.641% | -1.778% | -2.328% |
| 28 | `CN1CCCn2c(nc(CNS(=O)(=O)C3CC3)cc2=O)C1` | 7.92% | -3.209% | -2.562% |
| 29 | `CC1CN(CC(=O)NCCc2ccncc2)Cc2ccccc2O1` (centres unmarked) | -0.3394% | -21.55% | -1.729% |
| 30 | `Cc1ccc(C2(CN3CCN(Cc4cn(C)nc4C)CC3)CC2)cc1` | 2.491% | -8.853% | -3.694% |
| 31 | `COCC1CN(Cc2ccccn2)Cc2cn(C)nc21` (centres unmarked) | 2.67% | -2.406% | 0.4115% |
| 32 | `CC(CNC(=O)CCCc1ccccn1)c1ccsc1` (centres unmarked) | -3.127% | -12.43% | 1.314% |
| 33 | `Cn1c(=O)c2c(n3ncnc13)NC(=O)CC2c1cccc(F)c1` (centres unmarked) | 11.6% | -6.336% | -2.679% |
| 34 | `CC(C)NC(=O)c1ccc2nnc(C3CCN(C(=O)NC(C)C)C3)n2c1` (centres unmarked) | 3.211% | -3.022% | -4.392% |
| 35 | `O[C@]12CCNC[C@H]1CN(c1ncccc1Cl)CC2` | 0.462% | 3.939% | 5.047% |
| 36 | `Cc1cnc(N2C[C@@H]3CCN(CC4CC4)C(=O)[C@H]3C2)nc1` | 6.366% | -8.081% | -2.562% |
| 37 | `CCc1cc(NC2CCS(=O)(=O)C2)nc(N2CCCCC2)n1` (centres unmarked) | 2.087% | -5.045% | 0.6606% |
| 38 | `CN(Cc1ccc(F)cc1)C(=O)c1ccoc1CN1CCNC(=O)C1` | 4.053% | -0.4892% | -0.89% |
| 39 | `CCNc1ncc(CN2CCOC(Cc3cccc(OC)c3)C2)cn1` (centres unmarked) | 4.895% | -16.61% | 2.993% |
| 40 | `N#CCCCS(=O)(=O)NC(=O)c1cccc(Cl)c1F` | 4.539% | -4.023% | -0.2742% |
| 41 | `O=C(O)c1cccc(CC2CCN(c3ncccn3)CC2)c1` | -3.271% | -3.89% | 1.784% |
| 42 | `Cc1nn(C)c2c(NCCCn3cccn3)nc(C3CC3)nc12` | -1.423% | 1.096% | 0.3886% |
| 43 | `COc1ccc(-c2cnc(CN3CCCC3Cn3cncn3)o2)cc1` (centres unmarked) | 0.02489% | -1.15% | -1.125% |
| 44 | `N[C@H]1CC[C@@H](n2cc(C(=O)NC3COc4ccccc43)nn2)CC1` (some centres unmarked) | 1.069% | -23.29% | 0.122% |
| 45 | `CC(C)c1nc(C2CCCN(C(=O)CS(=O)(=O)C(C)C)C2)no1` (centres unmarked) | 5.389% | -4.755% | -5.062% |
| 46 | `CCC(NCc1cccc(Cl)c1)c1ccccc1OCC(=O)NC` (centres unmarked) | -1.736% | -3.682% | -8.118% |
| 47 | `COc1ccc(C(C)NC(=O)C2CCN(S(C)(=O)=O)CC2)cc1C` (centres unmarked) | 1.915% | -9.569% | 2.776% |
| 48 | `Cc1nc(C)n(CC2CCCN2Cc2nc(C3CC3)no2)n1` (centres unmarked) | -3.408% | 3.606% | -2.201% |
| 49 | `Cc1cccc(CN2CC[C@@H]3[C@@H]2CCN3Cc2cccs2)n1` | 5.659% | -0.7218% | - |
| 50 | `COc1ccccc1OCCCc1cncc(C(N)=O)c1` | 7.896% | -8.1% | 1.104% |
| 51 | `c1cnnc(N2CCCC(NCc3cccc4c3OCCCO4)C2)c1` (centres unmarked) | 1.56% | -9.474% | 3.814% |
| 52 | `CCN1C(=O)CCC12CCN(S(=O)(=O)c1ccc(C#N)cc1)CC2` | -0.6424% | -8.259% | -1.536% |
| 53 | `COc1nc2c(cc1C(=O)N1CCCOC(Cn3cccn3)C1)CCC2` (centres unmarked) | 1.895% | -7.09% | -2.221% |
| 54 | `O=C(NCC(F)(F)F)NC1CCCc2c1cnn2CCO` (centres unmarked) | 3.448% | 1.725% | 3.552% |
| 55 | `Cc1cccnc1CN(C)C(C(=O)O)c1ccc(C(C)(C)C#N)cc1` (centres unmarked) | 0.7197% | -20.36% | 2.147% |
| 56 | `Cn1c(Nc2cn[nH]c2)c(C#N)c(=O)n(C)c1=O` | 3.635% | 9.419% | -4.023% |
| 57 | `CCn1c(=O)c2cc(S(N)(=O)=O)ccc2n(CC)c1=O` | 2.929% | 16.2% | 2.136% |
| 58 | `CCS(=O)(=O)N1CCC2(CC1)CC1(CCN(CCOC)CC1)C(=O)N2C` | 5.617% | -6.925% | 2.383% |
| 59 | `O=C(CCc1ccccc1)N1CCCC(c2n[nH]c3nccnc23)C1` (centres unmarked) | 2.358% | -0.2695% | - |
| 60 | `CN1CCN(Cc2cn3c(n2)CN(C(=O)N2CCOCC2)CC3)CC1` | -1.926% | 2.673% | 2.237% |
| 61 | `CCc1nccn1CCC(=O)N1CCOC(c2ccc(F)cc2)C1` (centres unmarked) | 0.1132% | 1.298% | -3.311% |

Some entries from above, unchanged:

For COc1ccccc1OCCCc1cncc(C(N)=O)c1 the result was PfKRS1: 7.896%; ClpP1P2: -8.1%; MtTrpRS: 1.104%.
For Cc1ccnn1CCC(=O)N1CCCC[C@@]2(C)[C@@H]1CCC(=O)N2C the result was PfKRS1: 1.156%; ClpP1P2: -14.92%; MtTrpRS: -3.312%.
For COCC1CN(Cc2ccccn2)Cc2cn(C)nc21 (centres unmarked) the result was PfKRS1: 2.67%; ClpP1P2: -2.406%; MtTrpRS: 0.4115%.
For CN(Cc1ccc(F)cc1)C(=O)c1ccoc1CN1CCNC(=O)C1 the result was PfKRS1: 4.053%; ClpP1P2: -0.4892%; MtTrpRS: -0.89%.
For Cc1cc2nc(C(C)C)cc(NC(C)c3nncn3C)n2n1 (centres unmarked) the result was PfKRS1: -3.187%; ClpP1P2: -0.7691%; MtTrpRS: 3.95%.
For COc1ccccc1CCNC(=O)N1CCCC(c2nncn2C)C1 (centres unmarked) the result was PfKRS1: 2.235%; ClpP1P2: -18.81%; MtTrpRS: 2.803%.
For Cn1c(=O)c2c(n3ncnc13)NC(=O)CC2c1cccc(F)c1 (centres unmarked) the result was PfKRS1: 11.6%; ClpP1P2: -6.336%; MtTrpRS: -2.679%.
For COc1ccc(C(=O)N2CC[C@@H](N3CCC(O)CC3)[C@H](O)C2)cc1C the result was PfKRS1: 1.902%; ClpP1P2: -8.762%; MtTrpRS: -8.637%.